Columns and labels:
Format in all cases: cell-based
[1] = test system: human umbilical vein endothelial cells (HUVEC); experiment: In vitro cytotoxicity assay on HUVEC; conditions: read-out: IC50 (μM) HUVEC
[2] = test system: MDA-MB-231 breast cancer cells; experiment: In vitro antitumor activity against breast cancer cell line MDA-MB-231; conditions: Homo sapiens, MDA-MB-231, read-out: IC50 (μM) MDA-MB-231, MDA-MB-231 breast cancer cell line
[3] = test system: Hela human cervical cancer cells; experiment: In vitro antitumor activity against cervical cancer cell line HeLa; conditions: read-out: IC50 (μM) Hela

## O=C(CCCCCCC(=O)Nc1ccccc1)NO [SAHA, vorinostat]
[1]
  IC50: 26.4 µM
[2]
  IC50: 3.52 µM
[3]
  IC50: 4.52 µM

Reference: PMC9635984 (Bioorganic & medicinal chemistry letters, 2022)
